Measurements reported in publication PMC4996943.
These are yes or no findings as the source states them, for the method shown. In cells and extracts the contact can be indirect. Some binding calls cover weakened binding; strength is not graded here.

Assays:
HisMax-p53 (human) = HisMax-p53 (human) (UniProt P04637); assay: pull-down; HEK293T cells co-expressing HisMax-p53 and HA-EFP (or C13/16S) or Myc-HERC5; lysates in buffer-A with 10 mM imidazole; Ni2+-NTA agarose 1 h at 4 °C, washed with 20 mM imidazole; immunoblot with anti-HA or anti-Myc
HA-EFP = HA-EFP (UniProt Q14258); assay: co-IP; HEK293T cells co-expressing HA-EFP (or C13/16S) and HisMax-p53; lysates in buffer-A (50 mM Tris-HCl pH 7.4, 150 mM NaCl, 1 mM EDTA, 0.2% Triton X-100); immunoprecipitation with anti-HA antibody 1 h at 4 °C, protein A-Sepharose; immunoblot with anti-Xpress
HA-EFP C13/16S = HA-EFP C13/16S (UniProt Q14258); assay: as above

binding (HisMax-p53 (human)) | binding (HA-EFP) | binding (HA-EFP C13/16S) | Substance
binds |  |  | HA-EFP (from UniProt Q14258 1-630) (enzyme)
binds |  |  | HA-EFP C13/16S (from UniProt Q14258 1-630) (enzyme)
 | binds | binds | HisMax-p53 (from UniProt P04637 1-393)
